Measured values as given in article PMC3384615.
These are yes or no findings as the source states them, for the method shown. In cells and extracts the contact can be indirect. Some entries that bind do so weakly or less than the wild type.

Biological target: epidermal growth factor receptor (EGFR), endogenous in YAMC mouse colonocytes (mouse (endogenous in YAMC)) (UniProt Q01279)
Test: cross-linking; YAMC cells (untreated, LA or DHA treated, low serum) incubated with 0 or 25 ng/mL EGF on ice for 1 h, then 3 mM BS3 (non-permeable) on ice for 20 min, quenched with 250 mM glycine; lysates Western blotted for EGFR

binding: binds
Substance: epidermal growth factor receptor (EGFR), endogenous in YAMC mouse colonocytes (from UniProt Q01279 25-1210)
